According to patent US20170253917A1, “METHODS AND SYSTEMS FOR DETERMINING ANTIBIOTIC SUSCEPTIBILITY” (priority 2016, published 2017):
At least one structure is not confirmed: it was looked up by name or label, or the drawing left a doubt.

System: 1496 clinical isolates of E. coli
Test: Phenotypic antibiotic susceptibility testing, MicroScan WalkAway plus System, Neg MIC 45 panel
Type: cell-based
Conditions: 1496 E. coli isolates
Protocol: Phenotypic antibiotic susceptibility testing was performed and an antibiotic response of resistant, intermediate or susceptible was assigned to each E. coli isolate per antibiotic based on minimal inhibitory concentrations as described in the MicroScan product insert. Phenotypic antibiotic susceptibility testing was performed on the 1496 E. coli isolates using the MicroScan WalkAway plus System and the Neg MIC 45 panel (P/N B1017-424) which covers 25 antibiotics. Cryopreserved isolates were sub-cultured twice on blood agar plates prior to antibiotic susceptibility testing. The MicroScan instrument was used to assign an antibiotic response of resistant, intermediate or susceptible for each isolate per antibiotic based on minimal inhibitory concentrations as described in the MicroScan product insert. Assignments of resistant or intermediate were combined and reported as resistant in this example. Assignments of susceptible are reported as such in this example.

**Q.** How did the “Phenotype of the E. coli isolates in words” value turn out when C[C@@H](O)[C@H]1C(=O)N2C(C(=O)O)=C(SCCN=CN)C[C@H]12 [Imipenem] was run?
**A.** the vast majority of isolates exhibited phenotypic susceptibility
